Reference: PMC7030922
These are yes or no findings as the source states them, for the method shown. Binding seen in cells or lysates may run through a third protein. Some results given as binding are weak or reduced against the parent protein; the word gives no strength.

Chains of the proteins cited; added tags and fusions are not shown. Lines headed by an entry give the natural chain unless they say otherwise; changes in a name come on top. Residues count along the entry.
UniProt P61264: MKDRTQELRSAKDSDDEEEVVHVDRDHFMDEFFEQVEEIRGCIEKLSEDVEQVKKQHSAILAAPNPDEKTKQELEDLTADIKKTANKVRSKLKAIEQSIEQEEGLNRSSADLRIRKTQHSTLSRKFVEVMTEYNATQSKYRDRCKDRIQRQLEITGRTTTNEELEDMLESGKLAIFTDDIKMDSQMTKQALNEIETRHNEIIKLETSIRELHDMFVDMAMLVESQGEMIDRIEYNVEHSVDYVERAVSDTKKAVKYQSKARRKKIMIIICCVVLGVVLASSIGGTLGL
UniProt P23818: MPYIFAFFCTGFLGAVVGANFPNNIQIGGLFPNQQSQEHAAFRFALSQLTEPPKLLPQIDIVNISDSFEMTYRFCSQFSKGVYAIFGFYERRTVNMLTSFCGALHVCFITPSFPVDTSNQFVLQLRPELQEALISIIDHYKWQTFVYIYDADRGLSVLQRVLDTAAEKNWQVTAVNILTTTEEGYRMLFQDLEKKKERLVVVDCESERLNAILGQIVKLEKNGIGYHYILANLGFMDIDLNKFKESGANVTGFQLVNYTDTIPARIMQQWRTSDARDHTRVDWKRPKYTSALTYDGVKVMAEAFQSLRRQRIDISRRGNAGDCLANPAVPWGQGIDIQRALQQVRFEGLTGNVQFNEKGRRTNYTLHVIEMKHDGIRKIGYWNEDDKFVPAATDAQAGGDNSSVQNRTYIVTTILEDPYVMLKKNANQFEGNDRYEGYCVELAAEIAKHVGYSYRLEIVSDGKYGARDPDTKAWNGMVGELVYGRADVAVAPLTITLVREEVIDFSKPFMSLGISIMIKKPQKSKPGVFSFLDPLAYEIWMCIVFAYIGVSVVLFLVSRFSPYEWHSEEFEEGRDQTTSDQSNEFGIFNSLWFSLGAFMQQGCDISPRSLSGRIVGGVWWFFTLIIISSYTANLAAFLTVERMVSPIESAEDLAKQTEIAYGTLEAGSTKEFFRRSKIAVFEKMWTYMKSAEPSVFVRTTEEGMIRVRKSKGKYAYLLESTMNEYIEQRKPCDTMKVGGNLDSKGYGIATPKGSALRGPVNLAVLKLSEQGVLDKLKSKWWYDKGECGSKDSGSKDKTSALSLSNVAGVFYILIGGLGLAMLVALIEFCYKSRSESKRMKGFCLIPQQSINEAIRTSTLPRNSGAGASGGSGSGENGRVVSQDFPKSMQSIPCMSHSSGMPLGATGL
UniProt P23819: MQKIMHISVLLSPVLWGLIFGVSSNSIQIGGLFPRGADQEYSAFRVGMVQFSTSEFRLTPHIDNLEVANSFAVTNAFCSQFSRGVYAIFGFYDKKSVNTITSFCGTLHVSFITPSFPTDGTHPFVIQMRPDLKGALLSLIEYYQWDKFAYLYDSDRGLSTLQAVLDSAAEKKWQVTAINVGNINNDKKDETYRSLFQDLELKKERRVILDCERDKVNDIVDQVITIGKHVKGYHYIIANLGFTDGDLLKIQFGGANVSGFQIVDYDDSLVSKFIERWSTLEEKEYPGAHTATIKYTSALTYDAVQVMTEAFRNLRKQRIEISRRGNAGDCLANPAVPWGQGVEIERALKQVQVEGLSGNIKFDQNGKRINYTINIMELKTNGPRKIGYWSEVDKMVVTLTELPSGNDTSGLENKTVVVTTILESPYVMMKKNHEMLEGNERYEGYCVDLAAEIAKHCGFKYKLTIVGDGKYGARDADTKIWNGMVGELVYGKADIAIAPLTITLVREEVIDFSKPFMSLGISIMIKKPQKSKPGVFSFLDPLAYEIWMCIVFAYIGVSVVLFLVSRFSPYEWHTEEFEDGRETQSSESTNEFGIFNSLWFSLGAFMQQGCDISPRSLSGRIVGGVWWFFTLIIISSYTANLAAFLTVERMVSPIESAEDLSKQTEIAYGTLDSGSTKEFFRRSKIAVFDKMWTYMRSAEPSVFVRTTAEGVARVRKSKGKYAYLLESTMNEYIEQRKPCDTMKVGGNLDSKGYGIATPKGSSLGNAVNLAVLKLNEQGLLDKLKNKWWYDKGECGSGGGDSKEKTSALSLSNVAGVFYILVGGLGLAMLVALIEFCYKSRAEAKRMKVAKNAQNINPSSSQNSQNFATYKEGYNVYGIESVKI
UniProt Q9Z2W9: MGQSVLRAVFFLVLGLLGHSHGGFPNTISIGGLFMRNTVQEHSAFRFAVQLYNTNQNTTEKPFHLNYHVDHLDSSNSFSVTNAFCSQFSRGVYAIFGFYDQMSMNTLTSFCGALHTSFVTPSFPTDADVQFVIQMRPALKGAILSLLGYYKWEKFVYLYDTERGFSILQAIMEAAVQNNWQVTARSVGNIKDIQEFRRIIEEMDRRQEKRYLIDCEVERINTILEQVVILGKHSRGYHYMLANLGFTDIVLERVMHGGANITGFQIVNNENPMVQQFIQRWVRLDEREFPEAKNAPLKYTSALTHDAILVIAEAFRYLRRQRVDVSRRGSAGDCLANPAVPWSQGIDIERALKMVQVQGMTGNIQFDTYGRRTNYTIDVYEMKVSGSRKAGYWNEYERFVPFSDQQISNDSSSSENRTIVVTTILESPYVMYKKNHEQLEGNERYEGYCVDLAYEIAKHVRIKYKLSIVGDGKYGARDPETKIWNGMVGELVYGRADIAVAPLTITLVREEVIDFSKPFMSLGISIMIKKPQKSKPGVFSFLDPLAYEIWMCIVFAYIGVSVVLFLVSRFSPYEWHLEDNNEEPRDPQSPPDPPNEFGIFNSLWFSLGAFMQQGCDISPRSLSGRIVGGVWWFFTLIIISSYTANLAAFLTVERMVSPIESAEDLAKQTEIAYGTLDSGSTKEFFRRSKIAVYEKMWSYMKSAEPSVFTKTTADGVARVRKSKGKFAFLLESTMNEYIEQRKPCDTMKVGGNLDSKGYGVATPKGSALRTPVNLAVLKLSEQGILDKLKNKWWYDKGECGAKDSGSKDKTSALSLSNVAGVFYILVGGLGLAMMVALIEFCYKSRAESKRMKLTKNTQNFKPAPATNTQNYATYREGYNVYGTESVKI
UniProt Q9Z2W8: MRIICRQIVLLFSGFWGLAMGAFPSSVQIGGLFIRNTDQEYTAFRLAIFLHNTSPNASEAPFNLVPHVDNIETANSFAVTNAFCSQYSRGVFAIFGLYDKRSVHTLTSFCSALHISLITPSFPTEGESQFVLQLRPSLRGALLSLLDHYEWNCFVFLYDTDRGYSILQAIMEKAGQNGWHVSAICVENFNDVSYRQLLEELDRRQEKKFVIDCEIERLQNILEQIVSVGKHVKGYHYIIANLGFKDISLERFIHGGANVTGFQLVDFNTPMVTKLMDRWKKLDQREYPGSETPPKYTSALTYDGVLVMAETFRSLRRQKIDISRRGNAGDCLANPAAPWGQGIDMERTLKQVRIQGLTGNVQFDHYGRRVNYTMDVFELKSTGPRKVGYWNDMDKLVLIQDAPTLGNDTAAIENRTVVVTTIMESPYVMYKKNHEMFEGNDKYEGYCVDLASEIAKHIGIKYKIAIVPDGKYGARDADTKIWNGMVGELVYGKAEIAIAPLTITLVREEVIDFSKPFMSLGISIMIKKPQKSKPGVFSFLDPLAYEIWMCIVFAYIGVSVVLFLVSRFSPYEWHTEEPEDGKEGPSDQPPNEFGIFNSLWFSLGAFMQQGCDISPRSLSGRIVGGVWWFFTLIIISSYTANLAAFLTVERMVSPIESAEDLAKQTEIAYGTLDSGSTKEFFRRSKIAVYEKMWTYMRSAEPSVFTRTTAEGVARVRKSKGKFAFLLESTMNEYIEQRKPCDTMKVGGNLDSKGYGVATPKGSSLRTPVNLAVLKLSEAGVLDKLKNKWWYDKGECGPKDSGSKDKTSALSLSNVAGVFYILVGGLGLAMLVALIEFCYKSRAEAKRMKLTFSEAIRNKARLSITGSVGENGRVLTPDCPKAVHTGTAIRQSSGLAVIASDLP
UniProt O08599: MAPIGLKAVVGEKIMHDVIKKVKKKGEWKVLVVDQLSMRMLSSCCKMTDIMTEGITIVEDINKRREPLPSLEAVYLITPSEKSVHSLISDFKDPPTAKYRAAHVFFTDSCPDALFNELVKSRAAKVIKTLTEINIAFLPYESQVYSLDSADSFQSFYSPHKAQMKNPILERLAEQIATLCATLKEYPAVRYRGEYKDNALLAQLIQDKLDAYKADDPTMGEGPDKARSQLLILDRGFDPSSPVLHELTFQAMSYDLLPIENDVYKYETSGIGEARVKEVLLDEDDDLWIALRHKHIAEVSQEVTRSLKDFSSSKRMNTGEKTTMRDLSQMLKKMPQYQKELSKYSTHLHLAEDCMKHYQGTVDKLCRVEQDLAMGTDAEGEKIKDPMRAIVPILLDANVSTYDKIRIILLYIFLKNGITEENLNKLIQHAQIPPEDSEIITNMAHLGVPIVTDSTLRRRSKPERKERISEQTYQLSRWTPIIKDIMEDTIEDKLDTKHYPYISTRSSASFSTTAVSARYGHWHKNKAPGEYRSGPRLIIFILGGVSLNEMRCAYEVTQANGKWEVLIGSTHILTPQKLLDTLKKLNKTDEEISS
UniProt O88998, residues 17-485: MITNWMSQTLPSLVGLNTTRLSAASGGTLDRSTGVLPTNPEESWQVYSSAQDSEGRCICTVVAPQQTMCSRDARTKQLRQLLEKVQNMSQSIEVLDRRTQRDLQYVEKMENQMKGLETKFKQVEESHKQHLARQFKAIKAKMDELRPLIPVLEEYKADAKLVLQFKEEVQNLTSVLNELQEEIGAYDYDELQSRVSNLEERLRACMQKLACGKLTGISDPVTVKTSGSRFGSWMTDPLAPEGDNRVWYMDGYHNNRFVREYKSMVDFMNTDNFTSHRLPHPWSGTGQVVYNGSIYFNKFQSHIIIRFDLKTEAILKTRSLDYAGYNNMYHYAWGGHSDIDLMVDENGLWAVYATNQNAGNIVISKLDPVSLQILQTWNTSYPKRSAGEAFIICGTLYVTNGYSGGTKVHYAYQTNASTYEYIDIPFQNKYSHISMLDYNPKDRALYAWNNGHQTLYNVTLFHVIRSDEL
UniProt P60879: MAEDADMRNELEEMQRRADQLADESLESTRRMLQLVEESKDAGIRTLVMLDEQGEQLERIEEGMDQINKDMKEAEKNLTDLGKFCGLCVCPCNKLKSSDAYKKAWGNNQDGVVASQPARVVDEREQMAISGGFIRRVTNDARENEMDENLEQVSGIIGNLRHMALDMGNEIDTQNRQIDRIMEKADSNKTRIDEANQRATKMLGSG

Experiments:
[1] = target: Stx1b (mouse (endogenous in hippocampus and cerebellum)) (UniProt P61264); experiment: cross-linking; 1 mM DSSO, 1 hour at room temperature, on freshly isolated synaptosomes and microsomes from mouse hippocampus and cerebellum; Lys-Lys cross-links identified by mass spectrometry (XlinkX v2.0, 2% FDR)
[2] = target: AMPAR complex (Gria1–4) (mouse (endogenous in hippocampus and cerebellum)) (UniProt P23818+P23819+Q9Z2W9+Q9Z2W8); experiment: as above

| binding [2] | Substance | binding [1] |
| --- | --- | --- |
|  | Stxbp1 (from UniProt O08599 1-594) | binds |
| binds | Olfm1 (from UniProt O88998 17-485) |  |
|  | Snap25 (from UniProt P60879 1-206) | binds |
